Assay [1] has as its target Mcm2 (S. cerevisiae) (UniProt P29469). Nature of the assay: cryo-EM structure; reconstituted from purified CMG, fork DNA, Csm3/Tof1, Ctf4, Mrc1 with AMP-PNP; glycerol gradient fixation (glutaraldehyde and BS3); both purified.
Assay [2] addresses Mcm6 (S. cerevisiae) (UniProt P53091). The assay is described as above.
In assay [3] the target is T1, Csm3 (S. cerevisiae) (UniProt Q04659).
T1 sequence: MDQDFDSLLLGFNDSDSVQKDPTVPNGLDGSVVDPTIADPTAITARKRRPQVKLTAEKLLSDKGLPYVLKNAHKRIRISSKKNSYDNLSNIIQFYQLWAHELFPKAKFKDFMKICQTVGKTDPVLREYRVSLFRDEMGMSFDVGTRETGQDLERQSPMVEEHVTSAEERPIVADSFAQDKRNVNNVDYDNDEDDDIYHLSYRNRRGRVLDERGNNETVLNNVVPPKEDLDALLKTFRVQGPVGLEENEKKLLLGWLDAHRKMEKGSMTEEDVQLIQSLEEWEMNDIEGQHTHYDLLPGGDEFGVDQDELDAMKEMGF
The assay can be described thus: cross-linking; XL-MS: co-expressed complex of CMG, Ctf4, Csm3/Tof1 and Mrc1, calmodulin eluate cross-linked with 100-fold excess of DSBU, 60 min, room temperature; trypsin, LC-MS/MS, MeroX; cross-links residues within about 30 Å.

The chains behind the UniProt entries cited, without tags or fusion partners.
UniProt P29469: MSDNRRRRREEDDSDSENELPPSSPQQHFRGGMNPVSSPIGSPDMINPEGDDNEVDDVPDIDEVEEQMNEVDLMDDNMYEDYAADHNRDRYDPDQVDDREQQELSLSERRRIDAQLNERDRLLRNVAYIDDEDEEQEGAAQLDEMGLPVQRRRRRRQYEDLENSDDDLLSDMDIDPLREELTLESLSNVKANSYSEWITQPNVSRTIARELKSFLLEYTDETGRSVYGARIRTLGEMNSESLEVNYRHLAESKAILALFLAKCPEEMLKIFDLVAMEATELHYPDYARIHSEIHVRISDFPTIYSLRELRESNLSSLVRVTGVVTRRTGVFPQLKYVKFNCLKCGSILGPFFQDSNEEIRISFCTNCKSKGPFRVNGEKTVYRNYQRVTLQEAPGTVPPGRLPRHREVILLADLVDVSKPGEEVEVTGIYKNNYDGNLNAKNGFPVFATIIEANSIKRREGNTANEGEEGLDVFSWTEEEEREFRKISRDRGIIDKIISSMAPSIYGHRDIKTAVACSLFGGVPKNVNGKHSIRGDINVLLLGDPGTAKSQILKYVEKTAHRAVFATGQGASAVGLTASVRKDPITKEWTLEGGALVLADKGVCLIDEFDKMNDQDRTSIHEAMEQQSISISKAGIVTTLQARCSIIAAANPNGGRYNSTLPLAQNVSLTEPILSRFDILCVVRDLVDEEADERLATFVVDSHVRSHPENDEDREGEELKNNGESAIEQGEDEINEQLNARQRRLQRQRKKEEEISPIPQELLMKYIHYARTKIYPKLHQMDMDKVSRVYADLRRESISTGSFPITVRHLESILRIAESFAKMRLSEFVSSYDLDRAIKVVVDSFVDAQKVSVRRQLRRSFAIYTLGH
UniProt P53091: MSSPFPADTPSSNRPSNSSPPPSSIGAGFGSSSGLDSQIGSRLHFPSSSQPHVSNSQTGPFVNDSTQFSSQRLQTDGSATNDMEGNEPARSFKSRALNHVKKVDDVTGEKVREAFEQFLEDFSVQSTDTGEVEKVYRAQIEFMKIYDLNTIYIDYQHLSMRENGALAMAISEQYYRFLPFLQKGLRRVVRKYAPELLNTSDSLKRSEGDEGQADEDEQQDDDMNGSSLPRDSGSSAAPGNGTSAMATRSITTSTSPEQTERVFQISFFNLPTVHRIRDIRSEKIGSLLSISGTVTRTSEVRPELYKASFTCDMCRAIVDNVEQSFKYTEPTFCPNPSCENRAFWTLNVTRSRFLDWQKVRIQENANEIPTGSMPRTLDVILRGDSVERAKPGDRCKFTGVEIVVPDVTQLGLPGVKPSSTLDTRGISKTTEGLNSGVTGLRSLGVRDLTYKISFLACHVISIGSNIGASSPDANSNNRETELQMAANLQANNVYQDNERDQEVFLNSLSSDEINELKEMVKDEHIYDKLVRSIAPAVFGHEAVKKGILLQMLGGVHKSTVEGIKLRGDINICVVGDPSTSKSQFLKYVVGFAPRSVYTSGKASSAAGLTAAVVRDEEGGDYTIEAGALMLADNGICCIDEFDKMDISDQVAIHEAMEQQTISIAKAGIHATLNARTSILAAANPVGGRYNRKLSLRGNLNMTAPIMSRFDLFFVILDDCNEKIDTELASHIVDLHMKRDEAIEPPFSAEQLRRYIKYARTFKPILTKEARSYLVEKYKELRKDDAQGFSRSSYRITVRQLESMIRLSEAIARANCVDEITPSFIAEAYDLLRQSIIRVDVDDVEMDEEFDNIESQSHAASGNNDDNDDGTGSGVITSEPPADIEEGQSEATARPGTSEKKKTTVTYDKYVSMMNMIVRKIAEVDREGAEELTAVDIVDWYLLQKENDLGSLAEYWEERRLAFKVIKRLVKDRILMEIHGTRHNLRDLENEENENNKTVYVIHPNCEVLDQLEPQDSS

In assay [4] the target is T2, Tof1 (S. cerevisiae, UniProt P53840 1-1238, phosphorylated (sites not given)).
T2 construct: Tof1, S. cerevisiae; residues 13-781 are resolved in the map; The Tof1 chain of m2; source: S. cerevisiae, overexpressed with Csm3, purified as Csm3/Tof1; in XL-MS part of the co-expressed, co-purified complex (yJY74)
T2 sequence: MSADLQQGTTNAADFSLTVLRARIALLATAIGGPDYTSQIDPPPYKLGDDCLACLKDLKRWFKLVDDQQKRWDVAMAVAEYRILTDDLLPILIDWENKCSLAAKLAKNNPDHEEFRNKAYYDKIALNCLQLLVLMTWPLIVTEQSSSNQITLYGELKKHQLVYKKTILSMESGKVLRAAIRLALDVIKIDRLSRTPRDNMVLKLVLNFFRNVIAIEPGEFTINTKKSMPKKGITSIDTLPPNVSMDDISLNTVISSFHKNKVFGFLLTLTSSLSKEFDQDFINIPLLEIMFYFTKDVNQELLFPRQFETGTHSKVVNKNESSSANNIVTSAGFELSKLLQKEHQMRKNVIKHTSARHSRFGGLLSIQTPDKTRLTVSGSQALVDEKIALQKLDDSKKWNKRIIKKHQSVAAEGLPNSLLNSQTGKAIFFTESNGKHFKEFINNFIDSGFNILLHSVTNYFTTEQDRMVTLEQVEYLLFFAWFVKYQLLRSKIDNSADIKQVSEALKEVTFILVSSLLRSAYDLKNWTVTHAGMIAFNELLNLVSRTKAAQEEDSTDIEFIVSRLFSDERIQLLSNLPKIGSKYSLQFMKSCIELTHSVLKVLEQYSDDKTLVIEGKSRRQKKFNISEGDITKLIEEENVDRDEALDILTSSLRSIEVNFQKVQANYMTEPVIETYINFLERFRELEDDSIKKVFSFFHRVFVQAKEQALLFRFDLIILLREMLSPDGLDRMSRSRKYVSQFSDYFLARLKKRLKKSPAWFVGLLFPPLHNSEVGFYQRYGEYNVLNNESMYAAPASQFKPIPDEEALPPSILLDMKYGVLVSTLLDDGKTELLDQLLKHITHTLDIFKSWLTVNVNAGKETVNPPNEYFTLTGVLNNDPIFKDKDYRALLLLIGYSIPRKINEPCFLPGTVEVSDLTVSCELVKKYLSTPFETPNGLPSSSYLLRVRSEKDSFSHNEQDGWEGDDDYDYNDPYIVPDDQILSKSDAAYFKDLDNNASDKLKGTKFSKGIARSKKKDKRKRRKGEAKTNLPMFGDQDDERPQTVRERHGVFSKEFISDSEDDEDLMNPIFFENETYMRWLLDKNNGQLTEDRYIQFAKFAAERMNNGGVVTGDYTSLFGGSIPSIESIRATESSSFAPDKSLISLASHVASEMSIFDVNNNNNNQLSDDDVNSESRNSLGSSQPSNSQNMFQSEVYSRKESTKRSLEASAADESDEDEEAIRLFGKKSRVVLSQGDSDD
Nature of the assay: cryo-EM structure; reconstituted from purified CMG, fork DNA, Csm3/Tof1, Ctf4, Mrc1 with AMP-PNP; glycerol gradient fixation (glutaraldehyde and BS3); both purified.

Assay [5] deals with T3, Tof1^(K400A, R401A, K404A) (S. cerevisiae) (UniProt P53840).
T3 sequence: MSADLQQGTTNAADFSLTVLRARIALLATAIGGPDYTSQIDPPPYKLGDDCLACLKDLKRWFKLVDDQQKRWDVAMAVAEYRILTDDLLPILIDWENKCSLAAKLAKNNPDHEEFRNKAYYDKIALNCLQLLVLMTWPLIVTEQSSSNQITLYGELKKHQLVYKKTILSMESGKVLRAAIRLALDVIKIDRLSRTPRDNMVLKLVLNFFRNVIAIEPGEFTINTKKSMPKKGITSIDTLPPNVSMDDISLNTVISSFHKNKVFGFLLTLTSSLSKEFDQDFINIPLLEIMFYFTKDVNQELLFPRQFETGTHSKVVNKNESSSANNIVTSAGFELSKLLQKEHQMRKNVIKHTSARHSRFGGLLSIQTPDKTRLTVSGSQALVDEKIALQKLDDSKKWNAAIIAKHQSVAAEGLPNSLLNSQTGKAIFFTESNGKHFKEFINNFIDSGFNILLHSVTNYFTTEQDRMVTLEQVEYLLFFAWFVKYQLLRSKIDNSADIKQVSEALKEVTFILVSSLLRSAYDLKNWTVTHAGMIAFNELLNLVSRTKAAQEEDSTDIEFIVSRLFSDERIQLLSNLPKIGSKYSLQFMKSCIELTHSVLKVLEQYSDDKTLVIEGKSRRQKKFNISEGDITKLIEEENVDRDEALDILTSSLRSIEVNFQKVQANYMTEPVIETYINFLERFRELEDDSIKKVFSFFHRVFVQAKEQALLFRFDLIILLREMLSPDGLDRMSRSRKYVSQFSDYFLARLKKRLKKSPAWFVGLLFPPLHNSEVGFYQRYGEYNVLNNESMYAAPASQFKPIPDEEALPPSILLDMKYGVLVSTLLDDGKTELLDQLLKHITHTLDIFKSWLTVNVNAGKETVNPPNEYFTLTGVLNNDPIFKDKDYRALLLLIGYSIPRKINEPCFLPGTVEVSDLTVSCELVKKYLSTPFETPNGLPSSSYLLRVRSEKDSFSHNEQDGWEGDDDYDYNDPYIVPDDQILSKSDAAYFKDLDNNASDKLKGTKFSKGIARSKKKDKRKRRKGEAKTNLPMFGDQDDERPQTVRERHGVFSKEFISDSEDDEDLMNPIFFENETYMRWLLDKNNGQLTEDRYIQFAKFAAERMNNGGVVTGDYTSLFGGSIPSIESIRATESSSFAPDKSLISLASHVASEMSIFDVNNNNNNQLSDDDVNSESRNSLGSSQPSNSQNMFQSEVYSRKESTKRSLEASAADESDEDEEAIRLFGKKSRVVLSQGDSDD
Nature of the assay: co-purification of co-expressed subunits; mutant heterodimers purified (Figure S10A); Csm3/Tof1 purification: Calmodulin Sepharose with TEV elution, MonoQ, Superdex 200 gel filtration.

Assay [6] concerns the target T2, Tof1. Described as above.

Results are given in words; binding and its absence hold for the method and conditions named. For part of these data: In cells and extracts the contact can be indirect. Some binding calls cover weakened binding; strength is not graded here.

B1: Tof1 (protein, UniProt P53840 1-1238)
chain: MSADLQQGTTNAADFSLTVLRARIALLATAIGGPDYTSQIDPPPYKLGDDCLACLKDLKRWFKLVDDQQKRWDVAMAVAEYRILTDDLLPILIDWENKCSLAAKLAKNNPDHEEFRNKAYYDKIALNCLQLLVLMTWPLIVTEQSSSNQITLYGELKKHQLVYKKTILSMESGKVLRAAIRLALDVIKIDRLSRTPRDNMVLKLVLNFFRNVIAIEPGEFTINTKKSMPKKGITSIDTLPPNVSMDDISLNTVISSFHKNKVFGFLLTLTSSLSKEFDQDFINIPLLEIMFYFTKDVNQELLFPRQFETGTHSKVVNKNESSSANNIVTSAGFELSKLLQKEHQMRKNVIKHTSARHSRFGGLLSIQTPDKTRLTVSGSQALVDEKIALQKLDDSKKWNKRIIKKHQSVAAEGLPNSLLNSQTGKAIFFTESNGKHFKEFINNFIDSGFNILLHSVTNYFTTEQDRMVTLEQVEYLLFFAWFVKYQLLRSKIDNSADIKQVSEALKEVTFILVSSLLRSAYDLKNWTVTHAGMIAFNELLNLVSRTKAAQEEDSTDIEFIVSRLFSDERIQLLSNLPKIGSKYSLQFMKSCIELTHSVLKVLEQYSDDKTLVIEGKSRRQKKFNISEGDITKLIEEENVDRDEALDILTSSLRSIEVNFQKVQANYMTEPVIETYINFLERFRELEDDSIKKVFSFFHRVFVQAKEQALLFRFDLIILLREMLSPDGLDRMSRSRKYVSQFSDYFLARLKKRLKKSPAWFVGLLFPPLHNSEVGFYQRYGEYNVLNNESMYAAPASQFKPIPDEEALPPSILLDMKYGVLVSTLLDDGKTELLDQLLKHITHTLDIFKSWLTVNVNAGKETVNPPNEYFTLTGVLNNDPIFKDKDYRALLLLIGYSIPRKINEPCFLPGTVEVSDLTVSCELVKKYLSTPFETPNGLPSSSYLLRVRSEKDSFSHNEQDGWEGDDDYDYNDPYIVPDDQILSKSDAAYFKDLDNNASDKLKGTKFSKGIARSKKKDKRKRRKGEAKTNLPMFGDQDDERPQTVRERHGVFSKEFISDSEDDEDLMNPIFFENETYMRWLLDKNNGQLTEDRYIQFAKFAAERMNNGGVVTGDYTSLFGGSIPSIESIRATESSSFAPDKSLISLASHVASEMSIFDVNNNNNNQLSDDDVNSESRNSLGSSQPSNSQNMFQSEVYSRKESTKRSLEASAADESDEDEEAIRLFGKKSRVVLSQGDSDD
modifications: phosphorylated (sites not given)
Regarding B1, the binding result in assay [1], in assay [2] and in assay [3] was “binds” in each case.

B2: Csm3 (natural protein, S. cerevisiae)
chain: MDQDFDSLLLGFNDSDSVQKDPTVPNGLDGSVVDPTIADPTAITARKRRPQVKLTAEKLLSDKGLPYVLKNAHKRIRISSKKNSYDNLSNIIQFYQLWAHELFPKAKFKDFMKICQTVGKTDPVLREYRVSLFRDEMGMSFDVGTRETGQDLERQSPMVEEHVTSAEERPIVADSFAQDKRNVNNVDYDNDEDDDIYHLSYRNRRGRVLDERGNNETVLNNVVPPKEDLDALLKTFRVQGPVGLEENEKKLLLGWLDAHRKMEKGSMTEEDVQLIQSLEEWEMNDIEGQHTHYDLLPGGDEFGVDQDELDAMKEMGF
notes: Csm3, S. cerevisiae; residues 46-139 are resolved in the map; The Csm3 chain of m2; source: S. cerevisiae, overexpressed with Tof1, purified as Csm3/Tof1; in XL-MS part of the co-expressed, co-purified complex (yJY74)
Take B2: the binding result in assay [4] and in assay [5] was “binds” throughout.

B3: Csm3^(K47A, R48A, R49A, Q51A, K53A) (protein, UniProt Q04659 1-317)
chain: MDQDFDSLLLGFNDSDSVQKDPTVPNGLDGSVVDPTIADPTAITARAAAPAVALTAEKLLSDKGLPYVLKNAHKRIRISSKKNSYDNLSNIIQFYQLWAHELFPKAKFKDFMKICQTVGKTDPVLREYRVSLFRDEMGMSFDVGTRETGQDLERQSPMVEEHVTSAEERPIVADSFAQDKRNVNNVDYDNDEDDDIYHLSYRNRRGRVLDERGNNETVLNNVVPPKEDLDALLKTFRVQGPVGLEENEKKLLLGWLDAHRKMEKGSMTEEDVQLIQSLEEWEMNDIEGQHTHYDLLPGGDEFGVDQDELDAMKEMGF
Turning to B3, the binding result in assay [6] and in assay [5] was “binds” each time.

B4: Csm3^(R49A, K53A) (protein, UniProt Q04659 1-317)
chain: MDQDFDSLLLGFNDSDSVQKDPTVPNGLDGSVVDPTIADPTAITARKRAPQVALTAEKLLSDKGLPYVLKNAHKRIRISSKKNSYDNLSNIIQFYQLWAHELFPKAKFKDFMKICQTVGKTDPVLREYRVSLFRDEMGMSFDVGTRETGQDLERQSPMVEEHVTSAEERPIVADSFAQDKRNVNNVDYDNDEDDDIYHLSYRNRRGRVLDERGNNETVLNNVVPPKEDLDALLKTFRVQGPVGLEENEKKLLLGWLDAHRKMEKGSMTEEDVQLIQSLEEWEMNDIEGQHTHYDLLPGGDEFGVDQDELDAMKEMGF
Turning to B4, the binding entry in assay [6] and in assay [5] was “binds” throughout.

For the origin of these results see PMC7276988, “Cryo-EM Structure of the Fork Protection Complex Bound to CMG at a Replication Fork” (Molecular Cell, 2020).
